Measurements reported in the supplement of paper PMC10849652.
Some of the results follow.

Sequences of proteins named here, by UniProt entry; tags and fusion partners are left off. A change or cut given only in a name is not applied to a line headed by its entry.
UniProt Q14667: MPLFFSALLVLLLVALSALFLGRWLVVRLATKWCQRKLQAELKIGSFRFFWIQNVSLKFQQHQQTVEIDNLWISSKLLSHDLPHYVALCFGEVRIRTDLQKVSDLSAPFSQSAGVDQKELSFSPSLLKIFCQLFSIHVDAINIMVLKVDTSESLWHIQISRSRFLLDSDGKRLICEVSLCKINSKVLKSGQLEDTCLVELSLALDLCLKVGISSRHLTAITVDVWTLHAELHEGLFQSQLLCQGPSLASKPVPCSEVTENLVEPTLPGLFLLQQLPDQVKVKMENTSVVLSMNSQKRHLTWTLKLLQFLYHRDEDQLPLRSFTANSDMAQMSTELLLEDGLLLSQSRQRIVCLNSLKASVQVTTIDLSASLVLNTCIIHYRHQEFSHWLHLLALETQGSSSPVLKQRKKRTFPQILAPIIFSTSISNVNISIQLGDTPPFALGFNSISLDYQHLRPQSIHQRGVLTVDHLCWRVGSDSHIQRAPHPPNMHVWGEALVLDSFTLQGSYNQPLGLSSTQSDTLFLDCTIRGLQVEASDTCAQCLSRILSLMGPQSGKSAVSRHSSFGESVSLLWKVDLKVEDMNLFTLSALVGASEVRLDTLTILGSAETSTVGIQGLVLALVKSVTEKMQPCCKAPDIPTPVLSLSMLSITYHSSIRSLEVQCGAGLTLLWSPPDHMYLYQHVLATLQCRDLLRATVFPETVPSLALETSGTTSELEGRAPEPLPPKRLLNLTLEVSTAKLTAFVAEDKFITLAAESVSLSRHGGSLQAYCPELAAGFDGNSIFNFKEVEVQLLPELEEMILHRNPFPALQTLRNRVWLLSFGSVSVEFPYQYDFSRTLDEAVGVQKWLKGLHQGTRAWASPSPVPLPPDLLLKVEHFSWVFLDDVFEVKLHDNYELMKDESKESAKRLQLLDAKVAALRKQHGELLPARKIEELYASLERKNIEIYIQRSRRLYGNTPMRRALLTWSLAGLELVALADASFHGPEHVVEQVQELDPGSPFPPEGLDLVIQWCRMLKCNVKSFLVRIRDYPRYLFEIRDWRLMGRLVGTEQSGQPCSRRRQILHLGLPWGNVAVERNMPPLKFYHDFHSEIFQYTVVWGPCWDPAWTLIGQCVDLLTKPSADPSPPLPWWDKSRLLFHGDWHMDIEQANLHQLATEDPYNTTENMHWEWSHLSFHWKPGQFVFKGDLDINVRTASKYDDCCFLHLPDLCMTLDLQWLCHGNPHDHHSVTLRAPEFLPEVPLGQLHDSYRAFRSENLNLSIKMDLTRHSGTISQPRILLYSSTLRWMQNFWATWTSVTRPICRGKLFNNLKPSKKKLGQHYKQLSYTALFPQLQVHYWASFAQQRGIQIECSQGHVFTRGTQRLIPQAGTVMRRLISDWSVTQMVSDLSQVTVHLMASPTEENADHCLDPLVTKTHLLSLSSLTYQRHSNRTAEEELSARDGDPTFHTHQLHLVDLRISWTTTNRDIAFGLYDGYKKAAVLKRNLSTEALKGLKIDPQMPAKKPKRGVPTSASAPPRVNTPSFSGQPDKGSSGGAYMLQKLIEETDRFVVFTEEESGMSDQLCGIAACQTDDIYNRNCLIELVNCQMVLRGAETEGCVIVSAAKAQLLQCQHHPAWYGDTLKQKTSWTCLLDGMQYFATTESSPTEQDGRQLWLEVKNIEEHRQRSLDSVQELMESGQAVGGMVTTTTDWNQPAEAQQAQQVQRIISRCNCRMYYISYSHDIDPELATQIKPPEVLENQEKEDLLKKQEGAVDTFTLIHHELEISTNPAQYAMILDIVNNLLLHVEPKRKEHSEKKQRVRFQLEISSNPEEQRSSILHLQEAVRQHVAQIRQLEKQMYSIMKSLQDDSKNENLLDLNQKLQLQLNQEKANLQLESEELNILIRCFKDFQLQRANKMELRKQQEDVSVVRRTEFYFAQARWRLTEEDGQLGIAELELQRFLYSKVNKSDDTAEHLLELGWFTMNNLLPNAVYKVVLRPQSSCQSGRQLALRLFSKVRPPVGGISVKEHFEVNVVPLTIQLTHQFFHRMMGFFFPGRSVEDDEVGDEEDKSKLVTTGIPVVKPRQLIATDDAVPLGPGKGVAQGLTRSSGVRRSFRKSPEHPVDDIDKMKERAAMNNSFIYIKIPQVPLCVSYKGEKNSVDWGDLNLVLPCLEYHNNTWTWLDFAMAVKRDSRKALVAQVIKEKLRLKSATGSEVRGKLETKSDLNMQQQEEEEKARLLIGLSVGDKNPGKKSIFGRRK
UniProt Q9P2J5: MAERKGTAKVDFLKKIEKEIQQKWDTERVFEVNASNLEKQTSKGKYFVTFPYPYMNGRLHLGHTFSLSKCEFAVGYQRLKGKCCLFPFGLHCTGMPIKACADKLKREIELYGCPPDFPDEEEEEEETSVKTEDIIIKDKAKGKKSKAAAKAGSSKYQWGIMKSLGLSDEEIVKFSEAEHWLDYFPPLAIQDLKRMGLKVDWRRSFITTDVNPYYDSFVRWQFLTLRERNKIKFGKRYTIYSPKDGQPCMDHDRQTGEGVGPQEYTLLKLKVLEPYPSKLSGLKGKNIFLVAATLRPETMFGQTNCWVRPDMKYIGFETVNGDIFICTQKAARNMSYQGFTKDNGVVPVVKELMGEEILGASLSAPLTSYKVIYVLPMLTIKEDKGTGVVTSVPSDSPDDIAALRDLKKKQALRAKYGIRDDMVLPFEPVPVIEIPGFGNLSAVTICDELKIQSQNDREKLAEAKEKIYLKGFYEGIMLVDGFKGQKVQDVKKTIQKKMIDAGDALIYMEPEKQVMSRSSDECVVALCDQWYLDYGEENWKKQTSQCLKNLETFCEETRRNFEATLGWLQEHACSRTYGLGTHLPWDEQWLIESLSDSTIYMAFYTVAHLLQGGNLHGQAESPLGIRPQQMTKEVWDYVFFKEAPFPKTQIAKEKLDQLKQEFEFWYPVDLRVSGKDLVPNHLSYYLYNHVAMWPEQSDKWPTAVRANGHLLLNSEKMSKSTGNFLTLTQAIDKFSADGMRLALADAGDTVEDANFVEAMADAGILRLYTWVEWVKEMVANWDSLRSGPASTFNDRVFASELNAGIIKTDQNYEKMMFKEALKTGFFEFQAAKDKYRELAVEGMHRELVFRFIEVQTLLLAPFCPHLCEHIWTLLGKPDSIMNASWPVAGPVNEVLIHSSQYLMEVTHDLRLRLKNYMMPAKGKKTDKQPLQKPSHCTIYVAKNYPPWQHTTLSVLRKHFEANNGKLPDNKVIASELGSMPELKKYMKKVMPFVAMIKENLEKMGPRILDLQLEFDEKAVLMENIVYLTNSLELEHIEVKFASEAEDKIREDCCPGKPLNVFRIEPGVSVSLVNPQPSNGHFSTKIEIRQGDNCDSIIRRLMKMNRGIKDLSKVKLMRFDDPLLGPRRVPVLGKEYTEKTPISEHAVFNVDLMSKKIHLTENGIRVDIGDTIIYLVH
UniProt Q9NSK0: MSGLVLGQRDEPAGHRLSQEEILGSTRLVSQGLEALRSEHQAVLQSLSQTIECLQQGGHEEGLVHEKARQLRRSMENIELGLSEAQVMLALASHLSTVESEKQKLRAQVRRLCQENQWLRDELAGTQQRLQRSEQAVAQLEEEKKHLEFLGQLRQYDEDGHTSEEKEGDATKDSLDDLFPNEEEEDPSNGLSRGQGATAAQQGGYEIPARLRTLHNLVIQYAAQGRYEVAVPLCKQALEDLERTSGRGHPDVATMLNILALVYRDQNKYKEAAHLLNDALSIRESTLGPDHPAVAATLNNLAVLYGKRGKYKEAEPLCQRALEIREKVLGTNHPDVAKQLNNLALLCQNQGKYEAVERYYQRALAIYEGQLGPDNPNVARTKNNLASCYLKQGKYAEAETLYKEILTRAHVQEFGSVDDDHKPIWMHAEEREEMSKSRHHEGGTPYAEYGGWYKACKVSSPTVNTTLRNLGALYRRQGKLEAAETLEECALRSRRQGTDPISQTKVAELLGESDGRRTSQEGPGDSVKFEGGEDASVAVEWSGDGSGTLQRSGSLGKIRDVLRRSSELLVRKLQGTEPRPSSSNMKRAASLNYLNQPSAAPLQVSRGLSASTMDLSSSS
UniProt P23276: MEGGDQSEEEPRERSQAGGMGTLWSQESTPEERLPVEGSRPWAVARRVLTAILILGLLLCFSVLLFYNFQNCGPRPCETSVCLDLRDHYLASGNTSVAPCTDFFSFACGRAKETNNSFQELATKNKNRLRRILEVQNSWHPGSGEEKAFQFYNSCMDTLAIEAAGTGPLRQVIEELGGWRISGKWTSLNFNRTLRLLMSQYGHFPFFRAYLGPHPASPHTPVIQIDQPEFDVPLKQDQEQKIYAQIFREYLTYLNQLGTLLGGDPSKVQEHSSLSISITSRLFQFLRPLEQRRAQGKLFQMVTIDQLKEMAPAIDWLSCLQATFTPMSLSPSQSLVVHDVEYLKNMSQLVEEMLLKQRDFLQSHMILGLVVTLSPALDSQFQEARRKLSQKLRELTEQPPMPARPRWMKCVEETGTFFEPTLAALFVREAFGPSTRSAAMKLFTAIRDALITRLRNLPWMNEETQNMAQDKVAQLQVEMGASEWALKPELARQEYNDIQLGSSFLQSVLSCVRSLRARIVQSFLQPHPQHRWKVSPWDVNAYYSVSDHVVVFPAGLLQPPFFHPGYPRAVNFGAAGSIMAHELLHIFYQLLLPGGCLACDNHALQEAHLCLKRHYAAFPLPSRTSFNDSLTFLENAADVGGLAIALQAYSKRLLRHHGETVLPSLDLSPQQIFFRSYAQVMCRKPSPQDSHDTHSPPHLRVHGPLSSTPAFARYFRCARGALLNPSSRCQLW
UniProt Q15058: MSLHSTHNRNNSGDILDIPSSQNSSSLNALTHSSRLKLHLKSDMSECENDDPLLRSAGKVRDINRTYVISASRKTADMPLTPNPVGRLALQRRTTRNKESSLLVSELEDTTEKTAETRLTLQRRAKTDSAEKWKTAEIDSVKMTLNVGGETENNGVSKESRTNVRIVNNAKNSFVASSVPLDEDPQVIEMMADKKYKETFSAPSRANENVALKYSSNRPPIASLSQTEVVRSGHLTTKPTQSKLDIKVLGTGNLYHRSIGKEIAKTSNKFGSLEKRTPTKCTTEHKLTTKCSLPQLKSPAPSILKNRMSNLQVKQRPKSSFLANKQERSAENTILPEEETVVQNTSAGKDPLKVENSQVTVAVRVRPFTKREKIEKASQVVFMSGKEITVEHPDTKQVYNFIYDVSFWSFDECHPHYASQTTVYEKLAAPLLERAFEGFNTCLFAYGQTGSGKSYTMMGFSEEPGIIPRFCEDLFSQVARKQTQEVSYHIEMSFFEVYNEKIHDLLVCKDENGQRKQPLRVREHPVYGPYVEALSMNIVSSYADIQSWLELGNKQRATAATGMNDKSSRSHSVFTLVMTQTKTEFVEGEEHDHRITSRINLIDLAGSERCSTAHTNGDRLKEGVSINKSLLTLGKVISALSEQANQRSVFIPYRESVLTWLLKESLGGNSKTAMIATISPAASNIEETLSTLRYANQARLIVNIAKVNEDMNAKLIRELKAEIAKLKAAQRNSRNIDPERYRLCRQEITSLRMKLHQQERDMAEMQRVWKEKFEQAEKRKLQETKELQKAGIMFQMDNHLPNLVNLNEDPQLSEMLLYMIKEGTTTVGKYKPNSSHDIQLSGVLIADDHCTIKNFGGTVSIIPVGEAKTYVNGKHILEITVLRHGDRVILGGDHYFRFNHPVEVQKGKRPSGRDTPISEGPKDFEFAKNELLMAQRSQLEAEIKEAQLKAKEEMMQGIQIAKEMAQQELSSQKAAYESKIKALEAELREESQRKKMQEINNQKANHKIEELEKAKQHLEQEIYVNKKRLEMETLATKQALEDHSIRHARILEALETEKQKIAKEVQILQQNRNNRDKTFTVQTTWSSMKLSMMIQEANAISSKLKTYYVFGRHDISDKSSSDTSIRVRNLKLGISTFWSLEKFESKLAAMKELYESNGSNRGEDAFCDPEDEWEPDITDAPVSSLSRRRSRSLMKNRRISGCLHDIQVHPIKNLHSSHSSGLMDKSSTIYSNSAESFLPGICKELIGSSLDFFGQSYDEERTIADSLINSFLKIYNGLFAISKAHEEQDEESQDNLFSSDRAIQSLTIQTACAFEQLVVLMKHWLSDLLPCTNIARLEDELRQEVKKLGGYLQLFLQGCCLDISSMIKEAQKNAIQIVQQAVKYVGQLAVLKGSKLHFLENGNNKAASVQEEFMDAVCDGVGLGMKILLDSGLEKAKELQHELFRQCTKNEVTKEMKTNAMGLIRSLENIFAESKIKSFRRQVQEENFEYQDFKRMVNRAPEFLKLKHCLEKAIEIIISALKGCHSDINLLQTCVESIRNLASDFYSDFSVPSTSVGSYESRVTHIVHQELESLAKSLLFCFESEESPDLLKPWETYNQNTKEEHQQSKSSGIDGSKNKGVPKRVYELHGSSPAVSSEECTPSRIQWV

Tests used:
Assay in all cases: log2 fold change, soluble protein after heating vs DMSO (PISA); higher = thermal stabilisation; K562 lysate, 10 uM; active = over 0.2 and 3.5 SD of the protein, either way, in both replicates (recomputed)
alvocidib = compound: CN1CC[C@H](c2c(O)cc(O)c3c(=O)cc(-c4ccccc4Cl)oc23)[C@H](O)C1 [alvocidib]
Procedure, shortened: (§1)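 K562 pellets were dounce-homogenised in PBS pH 7.4 containing 1 mM MgCl2, and the crude extract, at 1 mg/mL protein, was exposed to 10 μM compound for 30 min. Aliquots were heated for 3 min across 48°C-58°C, pooled, brought to 0.5% NP-40 at 4°C and spun at 21,000xg for 90 min, with the supernatant taken as soluble protein. TMTpro 16plex LC-MS/MS with equalised channel sums quantified that protein. Values are log-two fold changes in thermal stability relative to solvent controls, taken from duplicates.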

Tubastatin A = compound: CN1CCc2c(c3ccccc3n2Cc2ccc(C(=O)NO)cc2)C1 [Tubastatin A]
Procedure, shortened: as §1

[1] = compound: CNC(=O)C1=CC=CC=C1NC2=NC(=NC=C2Cl)NC3=C(C=C(C=C3)N4CCOCC4)OC
Procedure, shortened: as §1

defactinib = compound: CNC(=O)c1ccc(Nc2ncc(C(F)(F)F)c(NCc3nccnc3N(C)S(C)(=O)=O)n2)cc1 [defactinib]
Procedure, shortened: as §1

[2] = compound: CNc1nc(-c2ccc3c(N)n[nH]c3c2)cc(N2C[C@@H](C(=O)NC3CCCCC3)CC[C@H]2C)n1
Procedure, shortened: as §1

encorafenib = compound: COC(=O)N[C@@H](C)CNc1nccc(-c2cn(C(C)C)nc2-c2cc(Cl)cc(NS(C)(=O)=O)c2F)n1 [encorafenib]
Procedure, shortened: as §1

[3] = compound: COC(=O)[C@H](CCSC)NC(=O)C1=C(C=C(C=C1)NC[C@H](CS)N)C2=CC=CC=C2
Procedure, shortened: as §1

alisertib = compound: COc1cc(Nc2ncc3c(n2)-c2ccc(Cl)cc2C(c2c(F)cccc2OC)=NC3)ccc1C(=O)O [alisertib]
Procedure, shortened: as §1

[4] = compound: COc1cc2nc(-c3cc(F)ccc3O)nc(N[C@@H]3CNC[C@H]3C(C)(C)O)c2cc1OC
Procedure, shortened: as §1

gefitinib = compound: COc1cc2ncnc(Nc3ccc(F)c(Cl)c3)c2cc1OCCCN1CCOCC1 [gefitinib]
Procedure, shortened: as §1

lapatinib = compound: CS(=O)(=O)CCNCc1ccc(-c2ccc3ncnc(Nc4ccc(OCc5cccc(F)c5)c(Cl)c4)c3c2)o1 [lapatinib]
Procedure, shortened: as §1

pictilisib = compound: CS(=O)(=O)N1CCN(Cc2cc3nc(-c4cccc5[nH]ncc45)nc(N4CCOCC4)c3s2)CC1 [pictilisib]
Procedure, shortened: as §1

crizotinib = compound: C[C@@H](Oc1cc(-c2cnn(C3CCNCC3)c2)cnc1N)c1c(Cl)ccc(F)c1Cl [crizotinib]
Procedure, shortened: as §1

[5] = compound: C[C@H](C1=CC=C(C=C1)C(=O)NC2=C3C=CNC3=NC=C2)N
Procedure, shortened: as §1

duvelisib = compound: C[C@H](Nc1ncnc2nc[nH]c12)c1cc2cccc(Cl)c2c(=O)n1-c1ccccc1 [duvelisib]
Procedure, shortened: as §1

gandotinib = compound: Cc1cc(Nc2cc(CN3CCOCC3)c3nc(C)c(Cc4ccc(Cl)cc4F)n3n2)n[nH]1 [gandotinib]
Procedure, shortened: as §1

tozasertib = compound: Cc1cc(Nc2cc(N3CCN(C)CC3)nc(Sc3ccc(NC(=O)C4CC4)cc3)n2)n[nH]1 [tozasertib]
Procedure, shortened: as §1

doramapimod = compound: Cc1ccc(-n2nc(C(C)(C)C)cc2NC(=O)Nc2ccc(OCCN3CCOCC3)c3ccccc23)cc1 [doramapimod]
Procedure, shortened: as §1

bafetinib = compound: Cc1ccc(NC(=O)c2ccc(CN3CC[C@H](N(C)C)C3)c(C(F)(F)F)c2)cc1Nc1nccc(-c2cncnc2)n1 [bafetinib]
Procedure, shortened: as §1

[6] = compound: Cc1cccc(CC(=O)N2CCc3c2ccc(-c2cn(C)c4ncnc(N)c24)c3F)n1
Procedure, shortened: as §1

Measured: log2 fold change

KIAA0100 (UniProt Q14667)
inactive: alvocidib -0.033 | Tubastatin A 0.003 | [1] -0.01 | defactinib -0.015 | [2] 0.328 | encorafenib 0.053 | [3] -0.107 | alisertib 0.035 | [4] -0.007 | gefitinib -0.006 | lapatinib -0.011 | pictilisib -0.165 | crizotinib -0.021 | [5] -0.148 | duvelisib -0.017 | gandotinib -0.048 | tozasertib 0.077 | doramapimod 0.079 | bafetinib -0.269 | [6] 0.188

LACTB (UniProt P83111)
inactive: alvocidib 0.065 | Tubastatin A 0.021 | [1] 0.05 | defactinib 0.052 | [2] -0.033 | encorafenib 0.012 | [3] 0.014 | alisertib -0.019 | [4] -0.012 | gefitinib 0.015 | lapatinib 0.015 | pictilisib -0.014 | crizotinib 0.023 | [5] 0.111 | duvelisib 0.012 | gandotinib -0.11 | tozasertib -0.018 | doramapimod 0.023 | bafetinib -0.032 | [6] -0.027

LARS (UniProt Q9P2J5)
inactive: alvocidib 0.051 | Tubastatin A -0.153 | [1] 0.006 | defactinib 0.023 | [2] -0.054 | encorafenib 0.001 | [3] 0.097 | alisertib 0.01 | [4] -0.013 | gefitinib -0.007 | lapatinib -0.004 | pictilisib -0.015 | crizotinib -0.043 | [5] 0.047 | duvelisib -0.013 | gandotinib -0.081 | tozasertib 0.012 | doramapimod -0.009 | bafetinib -0.048 | [6] -0.005

KLHL36 (UniProt Q8N4N3)
inactive: alvocidib 0.046 | Tubastatin A 0.04 | [1] -0.032 | defactinib 0.039 | [2] 0.017 | encorafenib 0.031 | [3] -0.078 | alisertib 0.032 | [4] -0.009 | gefitinib -0.074 | lapatinib -0.045 | pictilisib -0.006 | crizotinib 0.021 | [5] -0.075 | duvelisib -0.02 | gandotinib -0.013 | tozasertib 0.014 | doramapimod -0.129 | bafetinib 0.022 | [6] -0.052

3 successive entries out of the list so far, quoted:
LACTB (UniProt P83111)
inactive: alvocidib 0.065 | Tubastatin A 0.021 | [1] 0.05 | defactinib 0.052 | [2] -0.033 | encorafenib 0.012 | [3] 0.014 | alisertib -0.019 | [4] -0.012 | gefitinib 0.015 | lapatinib 0.015 | pictilisib -0.014 | crizotinib 0.023 | [5] 0.111 | duvelisib 0.012 | gandotinib -0.11 | tozasertib -0.018 | doramapimod 0.023 | bafetinib -0.032 | [6] -0.027

LARS (UniProt Q9P2J5)
inactive: alvocidib 0.051 | Tubastatin A -0.153 | [1] 0.006 | defactinib 0.023 | [2] -0.054 | encorafenib 0.001 | [3] 0.097 | alisertib 0.01 | [4] -0.013 | gefitinib -0.007 | lapatinib -0.004 | pictilisib -0.015 | crizotinib -0.043 | [5] 0.047 | duvelisib -0.013 | gandotinib -0.081 | tozasertib 0.012 | doramapimod -0.009 | bafetinib -0.048 | [6] -0.005

KLHL36 (UniProt Q8N4N3)
inactive: alvocidib 0.046 | Tubastatin A 0.04 | [1] -0.032 | defactinib 0.039 | [2] 0.017 | encorafenib 0.031 | [3] -0.078 | alisertib 0.032 | [4] -0.009 | gefitinib -0.074 | lapatinib -0.045 | pictilisib -0.006 | crizotinib 0.021 | [5] -0.075 | duvelisib -0.02 | gandotinib -0.013 | tozasertib 0.014 | doramapimod -0.129 | bafetinib 0.022 | [6] -0.052

Following part:

KYAT1 (UniProt Q16773)
inactive: alvocidib -0.021 | Tubastatin A 0.016 | [1] -0.019 | defactinib -0.012 | [2] 0.016 | encorafenib 0 | [3] -0.027 | alisertib -0.025 | [4] 0.004 | gefitinib 0.031 | lapatinib -0.024 | pictilisib -0.002 | crizotinib -0.028 | [5] -0.083 | duvelisib 0.036 | gandotinib 0.065 | tozasertib -0.019 | doramapimod -0.019 | bafetinib -0.03 | [6] 0.025

LACTB2 (UniProt Q53H82)
inactive: alvocidib -0.007 | Tubastatin A 0.042 | [1] 0.015 | defactinib -0.01 | [2] 0.005 | encorafenib -0.006 | [3] -0.023 | alisertib -0.009 | [4] -0.009 | gefitinib 0.017 | lapatinib 0.024 | pictilisib -0.022 | crizotinib 0.022 | [5] -0.047 | duvelisib 0.01 | gandotinib 0.014 | tozasertib 0.007 | doramapimod 0.008 | bafetinib 0.013 | [6] -0.003

KDSR (UniProt Q06136)
inactive: alvocidib -0.021 | Tubastatin A 0.037 | [1] 0.006 | defactinib -0.005 | [2] 0.045 | encorafenib 0.037 | [3] -0.118 | alisertib -0.04 | [4] 0.017 | gefitinib -0.032 | lapatinib -0.015 | pictilisib -0.076 | crizotinib -0.022 | [5] -0.074 | duvelisib 0.028 | gandotinib 0.118 | tozasertib -0.017 | doramapimod 0.011 | bafetinib -0.082 | [6] 0.073

KIF13B (UniProt Q9NQT8)
inactive: alvocidib 0 | Tubastatin A -0.047 | [1] -0.013 | defactinib 0 | [2] 0.016 | encorafenib 0.039 | [3] 0.122 | alisertib 0.023 | [4] 0.061 | gefitinib 0.006 | lapatinib -0.029 | pictilisib 0.023 | crizotinib -0.024 | [5] -0.021 | duvelisib -0.021 | gandotinib 0.007 | tozasertib -0.014 | doramapimod 0.025 | bafetinib 0.011 | [6] -0.011

KPNA3 (UniProt O00505)
inactive: alvocidib -0.032 | Tubastatin A -0.027 | [1] -0.006 | defactinib -0.014 | [2] -0.003 | encorafenib -0.081 | [3] 0.054 | alisertib -0.011 | [4] 0.009 | gefitinib 0.013 | lapatinib -0.034 | pictilisib -0.03 | crizotinib -0.012 | [5] -0.139 | duvelisib 0.06 | gandotinib 0 | tozasertib -0.007 | doramapimod -0.082 | bafetinib 0.037 | [6] 0.098

LARP1 (UniProt Q6PKG0)
inactive: alvocidib 0.032 | Tubastatin A -0.053 | [1] -0.026 | defactinib -0.01 | [2] -0.038 | encorafenib -0.002 | [3] -0.011 | alisertib 0.008 | [4] -0.005 | gefitinib -0.004 | lapatinib -0.001 | pictilisib -0.005 | crizotinib 0.013 | [5] 0.034 | duvelisib 0 | gandotinib -0.05 | tozasertib 0.007 | doramapimod -0.021 | bafetinib 0.005 | [6] -0.024

KLC4 isoform 3 (UniProt Q9NSK0)
inactive: alvocidib -0.01 | Tubastatin A -0.091 | [1] -0.008 | defactinib 0.014 | [2] -0.084 | encorafenib 0.014 | [3] 0.007 | alisertib 0.014 | [4] 0.014 | gefitinib -0.028 | lapatinib -0.002 | pictilisib -0.053 | crizotinib -0.027 | [5] 0.019 | duvelisib 0.029 | gandotinib -0.074 | tozasertib -0.021 | doramapimod 0.034 | bafetinib -0.018 | [6] 0.001

KIAA1324L (UniProt A8MWY0)
inactive: alvocidib 0.018 | Tubastatin A 0.041 | [1] 0.027 | defactinib 0.07 | [2] -0.018 | encorafenib 0.042 | [3] -0.047 | alisertib -0.059 | [4] 0.001 | gefitinib 0.045 | lapatinib 0.001 | pictilisib -0.039 | crizotinib -0.015 | [5] -0.115 | duvelisib -0.008 | gandotinib -0.005 | tozasertib 0.002 | doramapimod 0.008 | bafetinib -0.082 | [6] 0.057

KDM6A (UniProt O15550)
inactive: alvocidib -0.057 | Tubastatin A -0.057 | [1] 0.041 | defactinib -0.048 | [2] 0.006 | encorafenib 0.054 | [3] 0.018 | alisertib -0.025 | [4] -0.005 | gefitinib -0.011 | lapatinib 0.033 | pictilisib 0.046 | crizotinib 0.003 | [5] -0.028 | duvelisib 0.032 | gandotinib 0.009 | tozasertib 0.01 | doramapimod 0.022 | bafetinib 0.002 | [6] 0.013

KIF2C (UniProt Q99661)
inactive: alvocidib 0.011 | Tubastatin A -0.18 | [1] -0.006 | defactinib 0.018 | [2] 0.002 | encorafenib 0.004 | [3] 0.096 | alisertib -0.006 | [4] 0.001 | gefitinib -0.014 | lapatinib 0.002 | pictilisib -0.003 | crizotinib -0.007 | [5] 0.004 | duvelisib 0.011 | gandotinib -0.051 | tozasertib -0.008 | doramapimod 0.022 | bafetinib 0.004 | [6] -0.002

KEL (UniProt P23276)
inactive: alvocidib -0.015 | Tubastatin A 0.038 | [1] 0.01 | defactinib -0.01 | [2] 0.021 | encorafenib 0.029 | [3] -0.05 | alisertib -0.108 | [4] 0.075 | gefitinib -0.061 | lapatinib -0.019 | pictilisib -0.034 | crizotinib 0.003 | [5] 0.03 | duvelisib 0.003 | gandotinib -0.002 | tozasertib -0.025 | doramapimod -0.031 | bafetinib -0.12 | [6] -0.03

KIF14 (UniProt Q15058)
inactive: alvocidib -0.031 | Tubastatin A -0.217 | [1] 0.032 | defactinib 0.043 | [2] 0.011 | encorafenib 0.038 | [3] 0.045 | alisertib -0.028 | [4] 0.013 | gefitinib 0.001 | lapatinib 0.016 | pictilisib -0.277 | crizotinib -0.053 | [5] -0.082 | duvelisib 0.025 | gandotinib -0.011 | tozasertib 0.002 | doramapimod 0.046 | bafetinib -0.087 | [6] 0.042
